Results reported in PMC5652740, “Inhibition of HIV-1 infection in humanized mice and metabolic stability of protein phosphatase-1-targeting small molecule 1E7-03” (Oncotarget, 2017).
No constants are given. Whether binding was seen depends on the method and setting.

Amino acid sequences for entries named in this document (tags omitted). Residues count along the entry.
UniProt P62136, residues 7-300: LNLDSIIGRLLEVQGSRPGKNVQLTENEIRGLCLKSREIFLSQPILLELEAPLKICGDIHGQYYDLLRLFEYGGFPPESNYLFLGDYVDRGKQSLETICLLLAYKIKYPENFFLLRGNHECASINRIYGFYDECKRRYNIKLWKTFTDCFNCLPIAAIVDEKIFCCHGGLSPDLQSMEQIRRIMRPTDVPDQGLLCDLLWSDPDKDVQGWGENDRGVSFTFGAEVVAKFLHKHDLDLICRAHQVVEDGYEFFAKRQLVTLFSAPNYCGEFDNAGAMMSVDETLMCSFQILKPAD

Target: human PP1α (residues 7–300) (human) (UniProt P62136)
Experiment: SPR; PP1 immobilised on a CM5 chip by amine coupling (about 3160 RU); Biacore T200, 25°C; running buffer 0.01 M HEPES pH 7.4, […] NaCl, 0.005% Surfactant P20, 1% DMSO, 2 mM MnCl2; 1:1 binding model; both purified

## mutant pRb-Tat peptide with QACA mutation in the RVxF motif (from UniProt P04608 28-41)
  binding: no binding
